No constants are given. Whether binding was seen depends on the method and setting. In cells and extracts the contact can be indirect. Some results given as binding are weak or reduced against the parent protein; the word gives no strength. Tags and fused reporters may be left off the sequences shown.

Protein sequences, listed by entry. Tags and fused reporters are not part of them. Lines headed by an entry give the natural chain unless they say otherwise; changes in a name come on top.
UniProt Q9VY77: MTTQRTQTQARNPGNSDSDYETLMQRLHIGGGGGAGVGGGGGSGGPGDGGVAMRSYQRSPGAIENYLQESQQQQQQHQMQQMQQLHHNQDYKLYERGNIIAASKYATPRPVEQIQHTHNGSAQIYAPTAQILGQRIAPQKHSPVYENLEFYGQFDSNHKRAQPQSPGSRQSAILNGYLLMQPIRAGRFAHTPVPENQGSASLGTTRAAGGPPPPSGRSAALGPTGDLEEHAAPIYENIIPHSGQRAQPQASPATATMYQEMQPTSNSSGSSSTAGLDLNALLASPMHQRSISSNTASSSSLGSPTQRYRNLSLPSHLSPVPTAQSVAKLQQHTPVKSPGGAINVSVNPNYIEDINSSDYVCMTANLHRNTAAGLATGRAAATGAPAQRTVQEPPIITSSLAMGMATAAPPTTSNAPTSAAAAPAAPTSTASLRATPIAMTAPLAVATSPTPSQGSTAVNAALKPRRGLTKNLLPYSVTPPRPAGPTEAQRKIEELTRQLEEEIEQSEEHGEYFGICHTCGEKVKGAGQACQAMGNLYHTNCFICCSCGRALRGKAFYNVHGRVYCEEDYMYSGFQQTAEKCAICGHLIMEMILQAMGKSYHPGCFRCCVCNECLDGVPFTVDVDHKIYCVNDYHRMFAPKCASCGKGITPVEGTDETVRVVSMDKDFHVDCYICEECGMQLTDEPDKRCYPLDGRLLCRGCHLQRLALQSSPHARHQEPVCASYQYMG

The values that follow come from article PMC9377591.

The test addresses T1, V5-tagged Warts (Wts-V5-His) (Drosophila) (UniProt Q9VA38).
T1 sequence: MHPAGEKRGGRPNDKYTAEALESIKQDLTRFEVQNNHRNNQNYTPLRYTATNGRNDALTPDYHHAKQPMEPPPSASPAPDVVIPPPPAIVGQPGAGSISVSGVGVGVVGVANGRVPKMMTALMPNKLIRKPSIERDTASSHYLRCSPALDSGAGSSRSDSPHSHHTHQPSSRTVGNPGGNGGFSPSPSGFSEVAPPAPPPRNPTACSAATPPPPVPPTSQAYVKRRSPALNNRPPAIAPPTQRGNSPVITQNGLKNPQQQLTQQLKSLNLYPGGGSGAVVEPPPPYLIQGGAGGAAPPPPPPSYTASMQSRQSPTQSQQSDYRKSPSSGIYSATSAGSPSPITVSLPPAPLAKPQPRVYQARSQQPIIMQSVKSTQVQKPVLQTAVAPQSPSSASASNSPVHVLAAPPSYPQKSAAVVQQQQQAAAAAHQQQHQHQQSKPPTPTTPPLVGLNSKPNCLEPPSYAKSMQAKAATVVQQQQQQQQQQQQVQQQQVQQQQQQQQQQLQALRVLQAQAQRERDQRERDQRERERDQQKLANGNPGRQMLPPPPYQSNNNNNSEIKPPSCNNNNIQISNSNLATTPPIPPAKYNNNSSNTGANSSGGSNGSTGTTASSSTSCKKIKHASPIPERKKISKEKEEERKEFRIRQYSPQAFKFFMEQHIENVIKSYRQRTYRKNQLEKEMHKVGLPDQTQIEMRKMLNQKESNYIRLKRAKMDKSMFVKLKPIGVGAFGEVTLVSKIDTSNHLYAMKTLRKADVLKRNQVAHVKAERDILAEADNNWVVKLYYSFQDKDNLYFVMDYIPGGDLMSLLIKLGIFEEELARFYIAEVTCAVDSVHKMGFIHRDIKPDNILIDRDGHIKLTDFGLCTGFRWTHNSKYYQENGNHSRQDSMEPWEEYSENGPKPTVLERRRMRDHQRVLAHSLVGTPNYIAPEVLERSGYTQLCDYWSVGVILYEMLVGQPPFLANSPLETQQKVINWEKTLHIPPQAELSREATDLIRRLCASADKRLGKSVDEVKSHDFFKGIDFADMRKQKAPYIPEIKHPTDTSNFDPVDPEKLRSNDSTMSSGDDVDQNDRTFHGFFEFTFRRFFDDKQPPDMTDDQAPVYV
In words: co-IP; FLAG-tagged Jub constructs co-expressed with a V5-tagged partner in Drosophila S2 cells; lysis and washes in RIPA buffer (140 mM NaCl, 10 mM Tris-HCl pH 8.0, 1 mM EDTA, 1.0% Triton X-100, 0.1% SDS, 0.1% sodium deoxycholate); precipitated with anti-V5 agarose beads, blotted with anti-FLAG; band intensity normalised to full length Jub.

Take “Jub LIM only (506-718), FLAG-tagged (from UniProt Q9VY77 506-718) (domain or fragment)”: the binding result is on record as “binds”.

As to “Jub-FL (full length Ajuba LIM protein Jub), FLAG-tagged (from UniProt Q9VY77 1-728)”, the binding entry is reported as “binds”.
